Laboratory results taken from PubChem BioAssay AID504648 (National Center for Advancing Translational Sciences (NCATS), 2011).
Screen size: about 390,000 compounds; about 610 (0.16%) were called active. This list was built around the results that the source calls inconclusive (neither active nor inactive); the mix of calls is not that of the screen. The call rests on the fitted dose curve; in most records, active means well fitted inhibition curve with a large enough effect; inconclusive means small, poorly fitted or top-dose-only effect, or effect the other way, or another doubt; inactive means no such curve, though single readings can be large or run the other way. Potencies of inconclusive entries are doubtful fits and often do not repeat.

Assay: Nrf2 qHTS screen for inhibitors: counterscreen for cytotoxicity
Conditions: A549 ARE-Fluc cells, CellTiter-Fluor viability, 18-24 h; series mostly up to 46 µM; activity change, negative = cytotoxicity: at the top concentration
Procedure, shortened: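 A549 ARE-Fluc cells in 5% FBS OPTI-MEM, 5000 cells/well, rested 2 h then exposed to compounds in concentration-response for 18-24 h at 37 °C. Viability by CellTiter-Fluor fluorescence (Ex 405/Em 525) after 30 min; luciferase luminescence (BugLite, 15 min, RT) read afterwards.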
On the % scale 0 is the no-effect control and ±100 the full control effect; potency means the concentration at half of the fitted maximal effect.

Row | Structure (SMILES) | activity change, negative = cytotoxicity | Potency
1 | O=C(N/N=C/c1c(O)n(CCC2=CCCCC2)c(=O)[nH]c1=O)c1ccccc1 | inactive: 0.827% | 
2 | Cn1c(O)c(C(=N)COc2ccccc2)c(=O)n(C)c1=O |  | inconclusive: 14.6 µM [activator, partial curve, poor fit]
3 | CSc1ccc(CN2CCN(C(=O)COc3ccc(C)cc3)CC2)cc1 |  | inactive
4 | c1ccc(-c2cc(-c3ccccc3)[n+](-c3ccccc3)c(-c3ccccc3)c2)cc1 |  | inconclusive: 20.6 µM [falling, single point]
5 | COC(=O)C1=C(c2ccc(F)cc2OCc2ccccc2)C[C@@H]2CC[C@H]1N2C(=O)NCCOc1ccccc1Cl |  | inconclusive: 32.6 µM [falling, single point]
6 | CCN(CC)CCOC(=O)c1ccc(NC(=O)CCn2c(=O)oc3ccccc32)cc1 |  | inconclusive: 3.26 µM [activator, partial curve, poor fit]
7 | Cc1ccc2oc(=O)n(CCOc3ccccc3Cl)c2c1 |  | inconclusive: 9.2 µM [activator, partial curve, poor fit]
8 | Cc1ccc(-n2nc(C)cc2NC(=O)COc2cc(C)cc3oc(=O)c4c(c23)CCC4)cc1 |  | inconclusive: 29.1 µM [falling, single point]
9 | COC(=O)C1=C(c2ccc(-c3ccccc3)c(F)c2)C[C@@H]2CC[C@H]1N2C(=O)NCc1ccc(F)cc1 |  | inconclusive: 25.9 µM [falling, single point]
10 | O=[N+]([O-])c1ccccc1-c1cc(-c2ccccc2)cc(-c2ccccc2)[n+]1Cc1ccccc1Cl |  | inconclusive: 20.6 µM [falling, single point]
11 | O=[N+]([O-])c1ccc(N2CCCC2)cc1N/N=C1\CN2CCC1CC2 |  | active: 9.2 µM
12 | C[C@H]1C[C@@H](C)C(=O)[C@@H]([C@H](O)CC2CC(=O)NC(=O)C2)C1 |  | inconclusive: 0.231 µM [falling, full curve]
13 | C[C@]12CC[C@H]3[C@@H](CC[C@]4(O)C[C@@H](O)CC[C@]34C=O)[C@@]1(O)CC[C@@H]2C1=CC(=O)OC1 |  | inconclusive: 0.461 µM [falling, full curve]
14 | Nc1ccc2ccc3cccc[n+]3c2c1 |  | inconclusive: 18.4 µM [activator, partial curve]
15 | COc1ccc(OC)c(N2C(=O)NC(=O)/C(=C/c3ccc([N+](=O)[O-])s3)C2=O)c1 |  | inconclusive: 18.4 µM [falling, partial curve, poor fit]
16 | CC1=CC(=C2C(=O)NC(=S)NC2=O)C=C(C(F)(F)F)N1C |  | inconclusive: 15.8 µM [falling, single point]
17 | O=[N+]([O-])c1oc2ccc3ccccc3c2c1CCO |  | inconclusive: 20.6 µM [falling, single point]
18 | CCOC(=O)c1c(N)n(CCCOC(=O)c2ccco2)c2nc3ccccc3nc12 |  | inconclusive: 29.1 µM [falling, single point]
19 | COC1C(O)C(C)OC(OC2CCC3(C)C(CCC4C3C(O)CC3(C)C(C5=CC(=O)OC5)CCC43O)C2)C1O (stereo unspecified) |  | inconclusive: 0.517 µM [falling, full curve]
20 | O=C1NC2C(=CC(O)C(O)C2O)c2cc3c(cc21)OCO3 (stereo unspecified) |  | inconclusive: 3.66 µM [falling, full curve]
21 | COc1ccc(C(=O)C2CCCN(Cc3ccc(C)s3)C2)c(OC)c1 (stereo unspecified) |  | inconclusive: 29.1 µM [falling, single point]

Row | Structure (SMILES) | activity change, negative = cytotoxicity | Potency
22 | CC(C)CNC(=O)c1c(N)n(Cc2ccc3c(c2)OCO3)c2nc3ccccc3nc12 |  | inconclusive: 23.1 µM [falling, single point]
23 | CCOC(=O)C1(CCc2ccccc2)CCN(Cc2csc(C(C)=O)c2)CC1 |  | inconclusive: 23.1 µM [falling, partial curve, poor fit]
24 | Cc1cc(OC(=O)c2ccco2)c2c3c(c(=O)oc2c1)CCCC3 | inactive: -2.06% | 
25 | COC(=O)C1=C(c2cc3ccccc3s2)C[C@@H]2CC[C@H]1N2C(=O)NC1CC1 | inactive: 0.142% | 
26 | O=C(COc1ccccc1)N1CCN(CC2CC=CCC2)CC1 (stereo unspecified) | inactive: 5.96% | 
27 | CC1SC2(CN3CCC2CC3)NC1=O (stereo unspecified) | inactive: -3.29% | 
28 | C=C1C(=O)O[C@@H]2C[C@@H](C)[C@@H]3C=CC(=O)[C@@]3(C)[C@@H](OC(C)=O)[C@H]12 |  | active: 9.2 µM
29 | CC1N(C)c2cc(NC(=O)c3ccco3)c(P(=O)(Nc3ccc([N+](=O)[O-])cc3)N3CCOCC3)cc2C1(C)C (stereo unspecified) |  | active: 20.6 µM
30 | CCc1ccccc1N1C(=O)/C(=C/c2ccc(N3CCN(C)CC3)o2)C(=O)NC1=S |  | inconclusive: 25.9 µM [falling, partial curve, poor fit]
31 | O=Cc1cn(Cc2ccc([N+](=O)[O-])cc2)c2ccccc12 | inactive: -3.1% | 
32 | Nc1ccc(C2(c3ccc(N)cc3)c3ccccc3-c3ccccc32)cc1 |  | inconclusive: 25.9 µM [falling, single point]
33 | Cc1cc(NC(=O)CCl)no1 |  | inconclusive: 25.9 µM [falling, partial curve, poor fit]
34 | CCOC(=O)c1ccc(NC(=O)c2cccn(Cc3ccc(C)cc3)c2=O)cc1 |  | inconclusive: 11.6 µM [falling, partial curve, poor fit]
35 | CCC(CC)N1CCN(C(=O)Cc2ccccc2)CC1 |  | inconclusive: 9.2 µM [activator, partial curve, poor fit]
36 | C=C1C(=O)O[C@@H]2C[C@@H](C)[C@@H]3C4OC4C(=O)[C@@]3(C)[C@@H](O)[C@H]12 (stereo partly specified) |  | inconclusive: 18.4 µM [falling, single point]
37 | COC(=O)C(O)(c1ccc(NC(=S)NC(=O)c2ccc(Cl)cc2Cl)c(C)c1)C(F)(F)F (stereo unspecified) | inactive: -1.93% | 
38 | COc1cccc(C(=O)N/N=C(/c2ccccc2)c2ccccn2)c1 |  | inconclusive: 12.6 µM [falling, single point]
39 | Cn1nc(-c2ccccc2)nc2c(=O)n(C)c(=O)nc1-2 |  | active: 3.66 µM
40 | CN(C(=O)Cc1ccc2c(c1)OCO2)C1CCCN(Cc2ccccc2F)C1 (stereo unspecified) | inactive: 1.64% | 
41 | COC(=O)C1(C(=O)O)Cc2cc([N+](=O)[O-])ccc2N2CCCC21 (stereo unspecified) |  | inconclusive: 32.6 µM [falling, partial curve, poor fit]
42 | O=C1NC(=O)N(c2ccccc2)C(=O)/C1=C\C=C\c1ccccc1 | inactive: -16.6% | 

Row | Structure (SMILES) | activity change, negative = cytotoxicity | Potency
43 | CC(=O)OC1CCC2(C)C(CCC3C4CC(N5CC5)C(C(C)=O)C4(C)CC(=O)C32)C1 (stereo unspecified) |  | active: 14.6 µM
44 | CN1C2CCC1/C(=C/c1ccccn1)C(=O)/C2=C\c1ccccn1 |  | active: 7.31 µM
45 | C[C@@H]1O[C@@H](O[C@H]2C[C@@H](O)[C@]3(CO)[C@H]4[C@H](O)C[C@]5(C)[C@@H](C6COC(=O)C6)CC[C@]5(O)[C@@H]4CC[C@]3(O)C2)[C@H](O)[C@H](O)[C@H]1O (stereo partly specified) |  | inconclusive: 0.82 µM [falling, full curve]
46 | CN(C)c1ccc(/C=C/c2cc[n+](C)c3ccccc23)cc1 |  | active: 16.4 µM
47 | CC(C)n1c(=O)c(C=Nc2cccc([N+](=O)[O-])c2)c(O)n(CCc2ccccc2)c1=O | inactive: -18.8% | 
48 | CC(C)[C@H]1C(=O)O[C@H](C(C)C)C(=O)N(C)[C@@H](C(C)C)C(=O)O[C@H](C(C)C)C(=O)N(C)[C@@H](C(C)C)C(=O)O[C@H](C(C)C)C(=O)N1C |  | inconclusive: 8.2 µM [falling, partial curve]
49 | C/C1=C\[C@@H](C)C/C=C/[C@H]2[C@@H]3O[C@]3(C)[C@@H](C)[C@H]3[C@H](Cc4c[nH]c5ccccc45)NC(=O)[C@]32C(=O)/C=C/C(=O)[C@@H]1O |  | inconclusive: 18.4 µM [falling, single point]
50 | COc1ccc(N2C(=O)NC(=O)/C(=C\c3cn(C)c4ccccc34)C2=O)cc1 | inactive: 10.9% | 
51 | CN1CCN(C(=S)SCC(=O)Nc2ccc(Cl)cc2C(=O)c2ccccc2)CC1 |  | inconclusive: 25.9 µM [falling, partial curve, poor fit]
52 | CCOC(=O)[C@]12Cc3cc(Cl)ccc3[C@H]1N(Cc1ccccc1)C(=O)c1ccccc12 |  | inconclusive: 20.6 µM [falling, partial curve, poor fit]
53 | Cc1ccccc1C(O)(Cc1ccccc1)C1CN2CCC1CC2 (stereo unspecified) |  | inconclusive: 25.1 µM [falling, single point]
54 | CC(C)c1ccc(N2C(=O)NC(=O)/C(=C\C=C\c3ccco3)C2=O)cc1 |  | inconclusive: 29.1 µM [falling, single point]
55 | COc1cccc2c1C(=O)c1c(O)c3c(c(O)c1C2=O)CC(O)(C(C)=NO)CC3OC1CC(N)C(O)C(C)O1 (stereo unspecified) |  | inconclusive: 23.1 µM [falling, single point]
56 | CCC(C)C(=O)N[C@@H](c1ccccc1)[C@@H](O)C(=O)O[C@H]1C[C@@]2(O)[C@@H](OC(=O)c3ccccc3)C3[C@](C)(C(=O)[C@H](OC(C)=O)C(=C1C)C2(C)C)[C@@H](O)C[C@H]1OC[C@@]31OC(C)=O (stereo partly specified) |  | inconclusive: 7.31 µM [falling, partial curve, poor fit]
57 | O=c1[nH]c(O)c(N=Nc2cc([N+](=O)[O-])ccc2O)c(=O)[nH]1 |  | active: 23.1 µM
58 | CC(Cc1ccccc1)NC(N)=O (stereo unspecified) | inactive: 1.73% | 
59 | CN1C(=O)C(=Cc2ccc(N3CCCCCC3)o2)C(=O)N(C)C1=S |  | inconclusive: 2.91 µM [falling, partial curve, poor fit]
60 | Cc1oc(-c2ccccc2Cl)nc1CN1C(=O)CN=C(c2ccccc2)c2cc(Cl)ccc21 |  | inconclusive: 32.6 µM [falling, partial curve, poor fit]
61 | CC1OC(OC2CC(O)C3(CO)C4C(O)CC5(C)C(C6=CC(=O)OC6)CCC5(O)C4CCC3(O)C2)C(O)C(O)C1O (stereo unspecified) |  | inconclusive: 0.164 µM [falling, full curve, poor fit]

Three compounds already listed, arranged by number of heavy atoms, rising:
Row | Structure (SMILES) | activity change, negative = cytotoxicity | Potency
49 | C/C1=C\[C@@H](C)C/C=C/[C@H]2[C@@H]3O[C@]3(C)[C@@H](C)[C@H]3[C@H](Cc4c[nH]c5ccccc45)NC(=O)[C@]32C(=O)/C=C/C(=O)[C@@H]1O |  | inconclusive: 18.4 µM [falling, single point]
48 | CC(C)[C@H]1C(=O)O[C@H](C(C)C)C(=O)N(C)[C@@H](C(C)C)C(=O)O[C@H](C(C)C)C(=O)N(C)[C@@H](C(C)C)C(=O)O[C@H](C(C)C)C(=O)N1C |  | inconclusive: 8.2 µM [falling, partial curve]
56 | CCC(C)C(=O)N[C@@H](c1ccccc1)[C@@H](O)C(=O)O[C@H]1C[C@@]2(O)[C@@H](OC(=O)c3ccccc3)C3[C@](C)(C(=O)[C@H](OC(C)=O)C(=C1C)C2(C)C)[C@@H](O)C[C@H]1OC[C@@]31OC(C)=O (stereo partly specified) |  | inconclusive: 7.31 µM [falling, partial curve, poor fit]
